Values of other authors in patent publication US20020058028A1, “METHOD OF IN SITU DIAGNOSIS BY SPECTROSCOPIC ANALYSIS OF BIOLOGICAL STAIN COMPOSITIONS” (priority 1999, published 2002).
Some results were stated once for a whole list of compounds, not compound by compound. At least one compound was matched to its structure with a doubt left.

Tested on: Staphylococcus aureus
Details: upper bound

Cc1cc(=[N+](C)C)cc2sc3cc(N(C)C)cc(C)c3nc1-2.[Cl-] [dimethyl methylene blue]
increase in bactericidal activity on illumination: ≤ 16 fold
